{
  "sequences": {"note": "The chains behind the UniProt entries cited, without tags or fusion partners. Where a name states a change or a piece, a line headed by the entry shows the natural chain unless it says otherwise.", "UniProt O15379": "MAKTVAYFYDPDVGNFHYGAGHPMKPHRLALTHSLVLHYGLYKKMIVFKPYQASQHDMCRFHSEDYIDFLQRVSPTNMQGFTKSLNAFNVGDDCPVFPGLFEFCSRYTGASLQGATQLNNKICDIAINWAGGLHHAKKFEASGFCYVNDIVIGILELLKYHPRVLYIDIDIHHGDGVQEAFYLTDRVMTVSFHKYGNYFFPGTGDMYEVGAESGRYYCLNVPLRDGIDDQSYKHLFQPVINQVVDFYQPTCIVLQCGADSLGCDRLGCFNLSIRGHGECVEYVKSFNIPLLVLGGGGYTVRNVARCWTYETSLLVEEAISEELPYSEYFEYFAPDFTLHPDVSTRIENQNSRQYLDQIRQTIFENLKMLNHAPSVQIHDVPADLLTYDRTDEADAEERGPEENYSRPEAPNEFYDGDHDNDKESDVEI", "UniProt Q9UBN7": "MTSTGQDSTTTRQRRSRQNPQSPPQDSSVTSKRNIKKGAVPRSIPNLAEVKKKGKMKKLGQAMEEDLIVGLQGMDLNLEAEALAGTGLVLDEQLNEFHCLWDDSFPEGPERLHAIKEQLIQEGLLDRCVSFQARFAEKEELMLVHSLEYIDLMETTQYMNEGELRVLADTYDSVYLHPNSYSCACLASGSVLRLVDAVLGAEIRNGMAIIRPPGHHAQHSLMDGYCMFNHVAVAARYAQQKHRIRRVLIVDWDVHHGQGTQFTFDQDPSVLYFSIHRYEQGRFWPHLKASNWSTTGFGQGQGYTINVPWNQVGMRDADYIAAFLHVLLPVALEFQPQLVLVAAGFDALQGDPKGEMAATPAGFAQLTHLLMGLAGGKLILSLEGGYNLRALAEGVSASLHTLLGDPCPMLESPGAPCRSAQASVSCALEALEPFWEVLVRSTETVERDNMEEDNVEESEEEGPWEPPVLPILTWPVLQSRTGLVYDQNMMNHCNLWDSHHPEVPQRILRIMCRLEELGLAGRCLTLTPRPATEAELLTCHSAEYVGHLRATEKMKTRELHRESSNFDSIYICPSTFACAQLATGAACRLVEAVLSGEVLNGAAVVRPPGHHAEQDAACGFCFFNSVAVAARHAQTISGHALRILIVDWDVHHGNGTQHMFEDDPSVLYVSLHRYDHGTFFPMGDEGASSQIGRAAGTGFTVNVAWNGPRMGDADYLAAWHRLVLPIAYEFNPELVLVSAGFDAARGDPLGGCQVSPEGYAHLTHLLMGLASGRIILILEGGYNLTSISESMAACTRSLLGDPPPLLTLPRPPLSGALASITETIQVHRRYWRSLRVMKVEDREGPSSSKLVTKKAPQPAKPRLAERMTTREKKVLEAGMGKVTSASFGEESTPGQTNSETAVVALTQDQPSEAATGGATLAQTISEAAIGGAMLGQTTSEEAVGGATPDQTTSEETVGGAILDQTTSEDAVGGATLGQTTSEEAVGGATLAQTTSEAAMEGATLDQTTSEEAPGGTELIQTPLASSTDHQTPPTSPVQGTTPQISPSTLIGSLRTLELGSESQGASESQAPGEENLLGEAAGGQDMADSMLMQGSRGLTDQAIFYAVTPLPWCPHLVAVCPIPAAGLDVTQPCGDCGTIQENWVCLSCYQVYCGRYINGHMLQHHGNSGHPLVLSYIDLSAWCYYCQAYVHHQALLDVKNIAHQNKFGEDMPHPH"},
  "source": "patent US10538534B2",
  "about": "(Colorado State University Research Foundation, priority 2015, dated 2020)",
  "key": {"[1]": {"biological_target": "HDAC3 (Homo sapiens, UniProt O15379)", "assay": "Biochemical profiling for HDACi activity, miniaturized assay platform (HDAC1-9)", "method": "(§1) The pyridyl derivatives were also tested in the 797 and 10326 NUT midline carcinoma cell lines."}, "[2]": {"biological_target": "HDAC6 (Homo sapiens, UniProt Q9UBN7)", "details": "compared with IC50 for HDACs 1-3", "method": "as §1"}},
  "data": [
    {"smiles": "CCCCCCCC(=O)SCC/C=C/[C@@H]1CC(=O)NCc2nc(cs2)C2=N[C@@](C)(CS2)C(=O)N[C@@H](C(C)C)C(=O)O1", "note": "[Largazole]", "values": [
      {"measurement": "IC50", "setting": "[1]", "result": "< 20", "unit": "nM"},
      {"measurement": "IC50 HDAC6", "setting": "[2]", "result": "much higher"}
    ]}
  ]
}
